No constants are given. Whether binding was seen depends on the method and setting. Binding seen in cells or lysates may run through a third protein. Some entries that bind do so weakly or less than the wild type.
Experiments:
[1] = target: peptidyl-prolyl isomerase PIN1 (mouse (endogenous in bone marrow derived and primary calvarial osteoblasts)) (UniProt Q9QUR7); experiment: co-IP; differentiated primary calvarial osteoblasts treated with BMP2 for 60 min; immunoprecipitation with anti-PIN1 and immunoblot
[2] = target: peptidyl-prolyl isomerase PIN1 (mouse (endogenous in bone marrow derived and primary calvarial osteoblasts)) (UniProt Q9QUR7); experiment: co-IP; differentiated primary calvarial osteoblasts, untreated (no BMP2); immunoprecipitation with anti-PIN1 and immunoblot
[3] = target: peptidyl-prolyl isomerase PIN1 (mouse (endogenous in bone marrow derived and primary calvarial osteoblasts)) (UniProt Q9QUR7); experiment: co-IP; bone marrow cells treated with BMP2 (200 ng/ml) for 10 days; lysis in NP-40 buffer (1% Triton-X 100, 0.5% NP-40, 150 mM NaCl, 10 mM Tris pH 7.4, 1 mM EDTA, 1 mM EGTA); immunoprecipitation with anti-PIN1, protein G-agarose, 4°C; immunoblot

Sequences of proteins named here, by UniProt entry; tags and fusion partners are left off.
UniProt Q9QUR7: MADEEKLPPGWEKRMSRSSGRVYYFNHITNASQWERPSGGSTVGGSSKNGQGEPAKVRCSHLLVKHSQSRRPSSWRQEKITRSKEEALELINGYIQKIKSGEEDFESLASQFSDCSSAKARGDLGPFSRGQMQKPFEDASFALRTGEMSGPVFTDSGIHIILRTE
UniProt P97454: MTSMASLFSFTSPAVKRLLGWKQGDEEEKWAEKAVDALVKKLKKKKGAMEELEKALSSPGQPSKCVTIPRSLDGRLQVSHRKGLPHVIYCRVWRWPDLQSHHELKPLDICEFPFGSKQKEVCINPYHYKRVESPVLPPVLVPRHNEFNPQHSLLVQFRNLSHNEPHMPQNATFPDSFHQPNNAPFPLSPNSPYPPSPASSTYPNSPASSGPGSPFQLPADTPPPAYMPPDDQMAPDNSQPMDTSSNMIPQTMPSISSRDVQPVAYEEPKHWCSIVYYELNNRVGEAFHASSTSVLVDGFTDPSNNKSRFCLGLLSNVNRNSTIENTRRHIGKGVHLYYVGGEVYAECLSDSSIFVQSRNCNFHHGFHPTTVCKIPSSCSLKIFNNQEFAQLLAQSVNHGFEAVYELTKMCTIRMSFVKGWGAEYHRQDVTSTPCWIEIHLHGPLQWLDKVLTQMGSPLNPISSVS

SMAD5 (from UniProt P97454 1-465)
binding [1]: binds | binding [2]: binds weakly | binding [3]: binds

Source: paper PMC3651169
